The list shows only some results of the screen, not a fair sample: it is rich in T/C values a quarter to a half above the control, in often repeated tests (any T/C) and in doses without a T/C. Other doses and runs of a compound stand elsewhere. T/C: endpoint of the treated group in % of that of the vehicle group. Schedule codes are those of the source, read here as Q, the interval in days (D) or hours (H), X, the number of doses. Some T/C values carry the count of animals alive at the toxicity check (mostly the fifth day); without a count, all were alive then. Some entries hold several experiments; the results are listed from low to high. Some doses have a count of surviving animals in place of a T/C: the source files T/C as zero there, which appears to mark a toxic dose or a test without result, not a measured value. Counts of survivors are from the toxicity check (mostly the fifth day) where no day follows; animals may have died later.

In this test the test system is mice, P1798 lymphosarcoma sc, survival or tumor weight T/C. The test can be described thus: NCI In Vivo Anticancer Drug Screen. Data for tumor model P1798 Lymphosarcoma (subcutaneous) in unknown mice. Conditions: schedule: Q01DX010 (ip). How it is done: The antitumor activity of compounds was measured in mice bearing transplantable tumors. Survival or tumor size were measured and the results are expressed as the measurement made in the treated group (T) divided by the measurement made in the vehicle treated control group (C). The tumor model used in this assay is P1798 Lymphosarcoma (subcutaneous) in unknown mice

`Cc1cc(N(CCCl)CCCl)ccc1N=Nc1ccccc1C(=O)O`: the survivor count (T/C endpoint: mean tumor weight, dose: 30.0 mg/kg/injection, vehicle: carboxymethylcellulose (CMC), higher T/C = larger tumour) is recorded as 0 of 10.
In the case of `CCN(CC)CCNc1ccc(C)c2sc3ccccc3c(=O)c12`, the survivor count (T/C endpoint: mean tumor weight, dose: 2.5 mg/kg/injection, vehicle: methylcellulose (MC), higher T/C = larger tumour) is on record as 5 of 10; the survivor count (T/C endpoint: mean tumor weight, dose: 25.0 mg/kg/injection, vehicle: methylcellulose (MC), higher T/C = larger tumour) is given as 3 of 10; the survivor count (T/C endpoint: mean tumor weight, dose: 50.0 mg/kg/injection, vehicle: methylcellulose (MC), higher T/C = larger tumour) is given as 4 of 10; the survivor count (T/C endpoint: mean tumor weight, dose: 100.0 mg/kg/injection, vehicle: methylcellulose (MC), higher T/C = larger tumour) is given as 0 of 10. In addition, the T/C runs as follows: (T/C endpoint: mean tumor weight, dose: 6.3 mg/kg/injection, vehicle: methylcellulose (MC), evaluated on day 14, higher T/C = larger tumour) 51, 55, 63, 106 % of control [9 of 10 alive]; (T/C endpoint: mean tumor weight, dose: 12.5 mg/kg/injection, vehicle: methylcellulose (MC), evaluated on day 14, higher T/C = larger tumour) 57, 60, 67, 74 % of control; (T/C endpoint: mean tumor weight, dose: 12.5 mg/kg/injection, vehicle: methylcellulose (MC), evaluated on day 20, higher T/C = larger tumour) 118 % of control [8 of 10 alive]; (T/C endpoint: mean tumor weight, dose: 25.0 mg/kg/injection, vehicle: methylcellulose (MC), evaluated on day 14, higher T/C = larger tumour) 38, 49 [7 of 10 alive], 58 [9 of 10 alive], 94 % of control.
In the case of `CN(C)c1ccc(Nc2c3ccccc3nc3ccccc23)cc1`, the survivor count reads like this: (T/C endpoint: mean tumor weight, dose: 12.5 mg/kg/injection, vehicle: carboxymethylcellulose (CMC), higher T/C = larger tumour) 0 of 10; (T/C endpoint: mean tumor weight, dose: 200.0 mg/kg/injection, vehicle: carboxymethylcellulose (CMC), higher T/C = larger tumour) 0 of 10; (T/C endpoint: mean tumor weight, dose: 400.0 mg/kg/injection, vehicle: carboxymethylcellulose (CMC), higher T/C = larger tumour) 0 of 10.
With `O=c1cn[nH]c(=O)[nH]1`, the survivor count was 5 of 10 (T/C endpoint: mean tumor weight, dose: 187.5 mg/kg/injection, vehicle: carboxymethylcellulose (CMC), higher T/C = larger tumour); 6 of 10 (T/C endpoint: mean tumor weight, dose: 750.0 mg/kg/injection, vehicle: carboxymethylcellulose (CMC), higher T/C = larger tumour); 0 of 10 (T/C endpoint: mean tumor weight, dose: 1500.0 mg/kg/injection, vehicle: carboxymethylcellulose (CMC), higher T/C = larger tumour).
Regarding `S=P(N1CCOCC1)(N1CC1)N1CC1`, the survivor count is, setting by setting: (T/C endpoint: mean tumor weight, dose: 25.0 mg/kg/injection, vehicle: carboxymethylcellulose (CMC), higher T/C = larger tumour) 0 of 10; (T/C endpoint: mean tumor weight, dose: 50.0 mg/kg/injection, vehicle: carboxymethylcellulose (CMC), higher T/C = larger tumour) 0 of 10.
On to `c1ccc(COCC[P+](c2ccccc2)(c2ccccc2)c2ccccc2)cc1`, for which the survivor count is 3 of 6 (T/C endpoint: mean tumor weight, dose: 3.0 mg/kg/injection, vehicle: saline, higher T/C = larger tumour) and 3 of 6 (T/C endpoint: mean tumor weight, dose: 12.0 mg/kg/injection, vehicle: saline, higher T/C = larger tumour).
Turning to `c1ccc(CNc2ncnc3[nH]ncc23)cc1`, the survivor count runs as follows: (T/C endpoint: mean tumor weight, dose: 31.25 mg/kg/injection, vehicle: carboxymethylcellulose (CMC), higher T/C = larger tumour) 0 of 10; (T/C endpoint: mean tumor weight, dose: 62.5 mg/kg/injection, vehicle: carboxymethylcellulose (CMC), higher T/C = larger tumour) 0 of 10; (T/C endpoint: mean tumor weight, dose: 125.0 mg/kg/injection, vehicle: carboxymethylcellulose (CMC), higher T/C = larger tumour) 0 of 10.
For `C[C@@H]1C[C@@H]([C@H](O)CC2CC(=O)NC(=O)C2)C(=O)[C@@H](C)C1`, the survivor count is, setting by setting: (T/C endpoint: mean survival time, dose: 12.5 mg/kg/injection, vehicle: water, higher T/C = longer survival) 1 of 10; (T/C endpoint: mean survival time, dose: 25.0 mg/kg/injection, vehicle: water, higher T/C = longer survival) 4 of 10; (T/C endpoint: mean survival time, dose: 50.0 mg/kg/injection, vehicle: water, higher T/C = longer survival) 0 of 1; (T/C endpoint: mean tumor weight, dose: 100.0 mg/kg/injection, vehicle: water, higher T/C = larger tumour) 0 of 10. For the same compound, the T/C (T/C endpoint: mean tumor weight, dose: 1.56 mg/kg/injection, vehicle: water, evaluated on day 14, higher T/C = larger tumour) was 139 % of control.
For `N#[N+]c1cnc([O-])[nH]c1=O`, the survivor count was 0 of 10 (T/C endpoint: mean tumor weight, dose: 20.0 mg/kg/injection, vehicle: carboxymethylcellulose (CMC), higher T/C = larger tumour) and 0 of 10 (T/C endpoint: mean tumor weight, dose: 40.0 mg/kg/injection, vehicle: carboxymethylcellulose (CMC), higher T/C = larger tumour).
On to `Nc1ncnc2c1ncn2C1OC(CO)CC1O` (stereo unspecified), for which the survivor count runs as follows: (T/C endpoint: mean tumor weight, dose: 150.0 mg/kg/injection, vehicle: carboxymethylcellulose (CMC), higher T/C = larger tumour) 4 of 10; (T/C endpoint: mean tumor weight, dose: 300.0 mg/kg/injection, vehicle: carboxymethylcellulose (CMC), higher T/C = larger tumour) 0 of 10.

For the origin of these results see PubChem BioAssay AID290 (DTP/NCI, 2004).
